Data from patent publication US7727950B2, “Methods and reagents for assaying protein kinase activity” (The University of Dundee, priority 2002, dated 2010).
Part of at least one peptide drawing is inferred or uncertain, most often the ends. Ends that are not written are not given here.

Protein sequences, listed by entry. Tags and fused reporters are not part of them.
UniProt Q16644, whole entry: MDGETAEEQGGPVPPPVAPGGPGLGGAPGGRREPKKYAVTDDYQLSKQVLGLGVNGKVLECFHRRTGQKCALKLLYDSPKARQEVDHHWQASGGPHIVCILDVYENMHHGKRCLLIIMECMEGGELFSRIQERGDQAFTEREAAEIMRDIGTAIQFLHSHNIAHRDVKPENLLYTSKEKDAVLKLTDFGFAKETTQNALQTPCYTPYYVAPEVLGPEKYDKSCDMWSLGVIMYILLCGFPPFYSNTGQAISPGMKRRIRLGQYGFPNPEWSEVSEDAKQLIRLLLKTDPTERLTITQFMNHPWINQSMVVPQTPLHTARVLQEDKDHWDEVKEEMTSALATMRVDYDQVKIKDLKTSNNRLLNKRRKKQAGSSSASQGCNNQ
UniProt O96017, whole entry: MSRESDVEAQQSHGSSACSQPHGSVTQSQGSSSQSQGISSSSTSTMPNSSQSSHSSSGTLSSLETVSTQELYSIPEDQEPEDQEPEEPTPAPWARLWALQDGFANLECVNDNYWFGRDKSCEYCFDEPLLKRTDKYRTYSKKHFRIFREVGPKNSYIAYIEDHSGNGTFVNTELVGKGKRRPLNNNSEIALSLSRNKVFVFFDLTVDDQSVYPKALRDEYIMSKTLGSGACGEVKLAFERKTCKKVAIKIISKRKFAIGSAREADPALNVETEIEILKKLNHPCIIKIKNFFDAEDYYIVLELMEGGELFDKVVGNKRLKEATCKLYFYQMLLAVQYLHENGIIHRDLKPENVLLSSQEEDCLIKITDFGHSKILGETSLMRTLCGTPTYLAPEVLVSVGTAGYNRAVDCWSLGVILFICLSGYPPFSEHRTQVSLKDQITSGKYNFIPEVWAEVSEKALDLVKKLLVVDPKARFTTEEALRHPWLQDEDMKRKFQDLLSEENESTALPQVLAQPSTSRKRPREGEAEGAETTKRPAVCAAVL

Tests used:
Assay in all cases: Kinetic parameters for peptide phosphorylation, radioactive filter-binding assay
MAPKAP-K3 = biological target: T1, MAPKAP-K3 (Homo sapiens, UniProt Q16644); format: biochemical; details: relative to Standard Substrate KKLNRTLSVA
T1 construct: GST; made in house; host or cells: E. coli
Source text: (§1) Apart from the AMP-activated protein kinase (AMPK, a gift from Drs S. Hawley and D. G. Hardie), cGMP-dependent protein kinase (PKG, a generous gift from Drs Susan Lohmann and Ulrich Walter, University of Wurzburg, Germany) and the catalytic subunit of cyclic AMP-dependent protein kinase (PKA, a gift from Dr C. Smythe), which were isolated from rat liver, bovine lung and bovine heart, respectively, all other protein kinases were expressed as either GST-fusion or His-tagged proteins (by a person, a person, Dr A. Paterson or a person, in this Division). The expressed proteins all corresponded to the human sequences apart from the rat Rho-dependent protein kinase (ROCK-II) and rat mitogen-activated protein kinase (MAPK) activated kinase-1a (MAPKAP-K1a, also called RSK). […]
(§2) All protein kinase assays were linear with respect to time. […] All papers were subsequently washed a further three times in phosphoric acid, once in acetone, then dried and counted for radioactivity. […] The plates were then washed six times (five min per wash) in PBS, 0.1% Tween 20 and binding of the phospho-specific antibody detected by incubating the plates with peroxidase-conjugated anti-sheep antibodies (Pierce). […] Signals were quantitated on LAS-1000IR software (FujiFilm). […]

AMPK = format: biochemical, rat
CHK2 = biological target: T2, CHK2 (Homo sapiens, UniProt O96017); format: biochemical; details: relative to Standard Substrate KKKVSRSGLYRSPSMPENLNRPR
T2 construct: an additional His-tag at the extreme C-terminus, to aid purification of the full-length product; GST; His-tag (C); made in house; host or cells: E. coli
Source text: as §1, §2

## RARTLSFAEPG
MAPKAP-K3
  Relative Vmax: 105%
AMPK; Standard Substrate = HMRSAMSGLHLVKRR
  Km: 75 µM
AMPK; relative to Standard Substrate HMRSAMSGLHLVKRR
  Relative Vmax: 114%
CHK2
  Relative Vmax: 221%
